Library screening results

Protein sequences, listed by entry. Tags and fused reporters are not part of them.
UniProt E9BF75, entry or part of it: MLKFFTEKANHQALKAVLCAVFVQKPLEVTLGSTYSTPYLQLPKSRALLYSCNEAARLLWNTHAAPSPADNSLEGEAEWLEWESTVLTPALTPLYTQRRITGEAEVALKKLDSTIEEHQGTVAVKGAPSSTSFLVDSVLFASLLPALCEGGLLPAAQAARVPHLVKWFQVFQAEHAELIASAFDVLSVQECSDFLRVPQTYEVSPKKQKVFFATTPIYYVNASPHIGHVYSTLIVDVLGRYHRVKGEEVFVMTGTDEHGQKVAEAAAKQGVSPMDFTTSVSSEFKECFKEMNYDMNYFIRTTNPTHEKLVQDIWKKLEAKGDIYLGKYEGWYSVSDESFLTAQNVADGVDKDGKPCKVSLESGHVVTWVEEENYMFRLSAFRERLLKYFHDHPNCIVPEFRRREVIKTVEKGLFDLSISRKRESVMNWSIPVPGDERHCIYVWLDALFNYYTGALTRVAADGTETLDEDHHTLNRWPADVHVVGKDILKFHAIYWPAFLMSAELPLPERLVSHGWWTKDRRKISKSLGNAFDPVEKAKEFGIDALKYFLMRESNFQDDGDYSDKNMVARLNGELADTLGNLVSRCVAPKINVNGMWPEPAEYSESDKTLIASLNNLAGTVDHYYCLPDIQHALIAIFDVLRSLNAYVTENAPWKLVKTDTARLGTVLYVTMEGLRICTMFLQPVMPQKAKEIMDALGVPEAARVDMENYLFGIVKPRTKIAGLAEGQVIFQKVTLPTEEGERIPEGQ

LdMetRS: 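Methionyl-tRNA synthetase (putative), Leishmania donovani (UniProt E9BF75). Primary screen of methionyl-tRNA synthetase; the read-out is not stated. The test concentration is not given. Values are per cent inhibition. About 68,000 compounds were tested under these conditions; 0.035% (about 24) showed 50% or more at least once.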
Mtb heat-shock: 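Assay on Mycobacterium tuberculosis, filed only as a heat shock assay from Cornell; the read-out is not stated. The concentration is filed as 10 mM, unlikely as a test dose, so the dose is not known. The record gives no direction; compounds that gave an IC50 in retests scored well above the rest, so higher reads as stronger inhibition. Of about 69,000 compounds tested this way, about 930 (1.4%) reached 50% or more in at least one test.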

All values are in %.
How 0% and 100% were set is not recorded. Most values in the screen are low, and negative values occur.
The compounds are a random part of those screened.
A dash means the value is not listed here; it may have been measured.

CCOCCN1C[C@H](C(=O)Nc2cccnc2)[C@@H]2CCO[C@@H]2C1 read LdMetRS: 16.81%. Result for c1cc(-c2noc(CN3CCn4c(nnc4C4CC4)C3)n2)co1 was LdMetRS: 14.11%; Mtb heat-shock: -8.463%. CCN1CCCC1CN(Cc1cc[nH]n1)CC1CCN(CCOC)CC1 (stereo not shown) gave LdMetRS: 4.811%; Mtb heat-shock: -21.62%. With CCCN(C(=O)COCC)c1cccc(C)c1 the screen gave LdMetRS: 11.28%; Mtb heat-shock: -18.01%. Result for COCCN1CCCC(c2ccnc3c(C(N)=O)cnn23)C1 (stereo not shown) was LdMetRS: 4.984%; Mtb heat-shock: -2.394%. N#Cc1cccc(OCCN2CCn3c(nnc3C3CC3)C2)c1 read LdMetRS: 22.25%; Mtb heat-shock: -29.63%. Cc1cc(C)c2c(c1)C(CC(=O)O)C(=O)N2 (stereo not shown) read LdMetRS: 8.71%; Mtb heat-shock: -14.11%.

Result for NC(=O)NC(CC(=O)NCCc1cccc(F)c1)c1cccs1 (stereo not shown) was LdMetRS: 4.861%; Mtb heat-shock: 5.6%. O=C(NCC1CCN(CCc2ccccc2)C1)NCC1(O)CCC1 (stereo not shown) gave LdMetRS: 19.73%; Mtb heat-shock: -16.97%. Cn1ncc(N2CCC(CNC3Cc4ccccc4C3)C2)cc1=O (stereo not shown) gave LdMetRS: -1.781%; Mtb heat-shock: -30.38%. Result for CCOC(=O)N1CCN(Cc2ccc(OCc3nccn3C)cc2)CC1 was LdMetRS: 14.17%; Mtb heat-shock: -30.06%. O=C1CC(N2CCN(c3ccccc3O)CC2)C(=O)N1Cc1cccs1 (stereo not shown) read LdMetRS: 18.42%; Mtb heat-shock: 18.23%. O=C(c1cc(COc2ccc3c(c2)OCO3)[nH]n1)N1CCOCC1 gave LdMetRS: 2.5%; Mtb heat-shock: 27.44%. For O=C(C1CCCCC1)N1C[C@@H]2CCN(c3cnccn3)C[C@@H]2C1 the result was LdMetRS: 14.42%.

With Cc1c[nH]nc1C1CCN(C(=O)Cn2cccn2)C1 (stereo not shown) the screen gave LdMetRS: 16.13%; Mtb heat-shock: -5.325%. For Cc1ccc(N2CCN(CC3CC3)C3(CCN(C(C)C)CC3)C2=O)cn1 the result was LdMetRS: 15.58%. For Cc1cc2[nH]c(CN3CCOC(c4ccc(Cl)cc4)C3)cc(=O)n2n1 (stereo not shown) the result was LdMetRS: 13.75%; Mtb heat-shock: -3.047%. For Cc1nnc(N2CCN(C(=O)NC3CC3)CC2)c(C(N)=O)c1C the result was LdMetRS: 14.7%; Mtb heat-shock: 8.776%. CC(=O)c1cc(CC(=O)N2CCN(CCOc3ccccc3)CC2)cs1 gave LdMetRS: 8.271%; Mtb heat-shock: -16.56%. For Cc1ccc(Cl)cc1NC(=O)C1CC(=O)N(Cc2ccccn2)C1 (stereo not shown) the result was LdMetRS: 1.567%; Mtb heat-shock: 7.09%. CC(C)Cc1noc(CN2CCN(CCO)CC2)n1 gave LdMetRS: 10.2%; Mtb heat-shock: 2.345%.

O=C(CCNc1ncc2c(n1)CCN2c1ccccc1)N1CCCC1 gave LdMetRS: 12.81%; Mtb heat-shock: 58.85%. [H][C@@]12C[C@@H](c3ccnc(C)n3)O[C@]1([H])CN(S(=O)(=O)c1ccccc1)C2 read Mtb heat-shock: -39.85%. Oc1cccc(C2CN(c3nnc(C4CC4)s3)CCO2)c1 (stereo not shown) gave LdMetRS: 8.01%; Mtb heat-shock: -6.732%. O=C(NCCNS(=O)(=O)c1cccc(Cl)c1)C1CCCO1 (stereo not shown) gave LdMetRS: -0.2717%; Mtb heat-shock: -15.43%. CSCCCN1C(=O)CC[C@H]2CN(Cc3ncc[nH]3)CC[C@H]21 read LdMetRS: 11.5%. Result for CC(C)CCN1Cc2c(C(=O)N3CCCC3)nn(C)c2C1 was LdMetRS: 7.971%. Result for COc1ncccc1C(=O)N1CC[C@]2(C[C@@H](Oc3cccnc3)CO2)C1 was LdMetRS: 4.375%.

Cc1cccc2c1cnn2CCCNC(=O)C1CC1 gave LdMetRS: 0.7538%; Mtb heat-shock: 22.34%. Result for Cl.c1ccc(CNc2cc(C3CCCNC3)ccn2)nc1 (stereo not shown) was Mtb heat-shock: 18.31%. For COCCC(=O)N1CCc2cc(Cl)cc(Cl)c2C1 the result was LdMetRS: -0.7874%; Mtb heat-shock: 22.97%. Result for O=C1NCCCCC1SCc1coc(-c2ccccc2)n1 (stereo not shown) was LdMetRS: -1.504%; Mtb heat-shock: -12.45%. Result for [H][C@]12CN(C(=O)c3cc(C)n(C)c3C)CC[C@@]1(O)CCN(S(C)(=O)=O)C2 was Mtb heat-shock: -22.89%. For O=C(O)C(F)(F)F.[H][C@@]12CCN(CC(=O)N(C)C)C(=O)[C@@]1([H])CN(c1ncc(C)cn1)C2 the result was Mtb heat-shock: -14.95%. With Cc1nc(C)n(CC2CCCN2Cc2nc(C)c3ccccc3n2)n1 (stereo not shown) the screen gave LdMetRS: 57.02%; Mtb heat-shock: -0.1749%.

With Cc1noc(C)c1CN1CCc2cnn(C)c2C1COCC1CC1.O=C(O)C(F)(F)F.O=C(O)C(F)(F)F (stereo not shown) the screen gave Mtb heat-shock: -10.84%. For CCS(=O)(=O)CCN1CCCC1c1noc(C)n1 (stereo not shown) the result was LdMetRS: 19.13%; Mtb heat-shock: -14.39%. CN1[C@H](Cn2cccn2)C[C@@H]2CN(C(=O)Cc3cccs3)CC[C@@H]21 gave LdMetRS: 6.397%. For [H][C@]12CCC[C@@]1(COc1cccnc1)CN(C(=O)Cc1ccco1)C2 the result was Mtb heat-shock: 11.43%. Result for Cc1ccc(S(=O)(=O)NCCNC(=O)c2cncnc2C)cc1 was LdMetRS: 5.955%; Mtb heat-shock: 9.4%. [H][C@]12C[C@H](C(=O)NC)N(C(C)=O)[C@@]1([H])CN(S(=O)(=O)c1ccccc1)C2 read Mtb heat-shock: 3.698%. CNc1cc(C2CCCN2C(=O)c2ccc3oc(=O)n(C)c3c2)ccn1 (stereo not shown) read LdMetRS: 11.54%; Mtb heat-shock: -13.44%.

CC(C)n1ccnc1C1CCN(Cc2ccc(Cl)c(F)c2)CC1 gave LdMetRS: 18.11%; Mtb heat-shock: 4.435%. Cc1cc(F)c(S(=O)(=O)Nc2ccn(CCC#N)n2)cc1F read LdMetRS: 17.49%; Mtb heat-shock: 15.66%. Result for Cc1ccc(C(=O)N2CCN(Cc3cccs3)CC2)n1C was LdMetRS: 18.79%; Mtb heat-shock: -20.53%. Result for CCOCCCNC(=O)c1cn(C(C)(C)C)c2ncccc12 was LdMetRS: 8.056%; Mtb heat-shock: 48.73%. Cc1ccc(OCC2CCCN(c3nc(CO)cs3)C2)cc1 (stereo not shown) read LdMetRS: 11.17%; Mtb heat-shock: -10.97%. With CCCc1nnc(N2CCC(N3CCCC(O)C3)CC2)o1 (stereo not shown) the screen gave LdMetRS: 6.272%; Mtb heat-shock: -9.975%.

5 of the entries, repeated:

Compound	LdMetRS	Mtb heat-shock
CN1[C@H](Cn2cccn2)C[C@@H]2CN(C(=O)Cc3cccs3)CC[C@@H]21	6.397	-
Cc1ccc(OCC2CCCN(c3nc(CO)cs3)C2)cc1 (stereo not shown)	11.17	-10.97
Cc1ccc(Cl)cc1NC(=O)C1CC(=O)N(Cc2ccccn2)C1 (stereo not shown)	1.567	7.09
Cc1ccc(S(=O)(=O)NCCNC(=O)c2cncnc2C)cc1	5.955	9.4
CCN1CCCC1CN(Cc1cc[nH]n1)CC1CCN(CCOC)CC1 (stereo not shown)	4.811	-21.62

From ChEMBL document CHEMBL3988442, “University of Dundee, Small-Polar-MMV Screening Library” (2021).